Some results were stated once for a whole list of compounds, not compound by compound.
Target: T1, human GPR120 (Homo sapiens, UniProt Q5NUL3)
T1 construct: host or cells: HEK293 cells co-expressing Gqi5
T1 sequence (Q5NUL3 1-361): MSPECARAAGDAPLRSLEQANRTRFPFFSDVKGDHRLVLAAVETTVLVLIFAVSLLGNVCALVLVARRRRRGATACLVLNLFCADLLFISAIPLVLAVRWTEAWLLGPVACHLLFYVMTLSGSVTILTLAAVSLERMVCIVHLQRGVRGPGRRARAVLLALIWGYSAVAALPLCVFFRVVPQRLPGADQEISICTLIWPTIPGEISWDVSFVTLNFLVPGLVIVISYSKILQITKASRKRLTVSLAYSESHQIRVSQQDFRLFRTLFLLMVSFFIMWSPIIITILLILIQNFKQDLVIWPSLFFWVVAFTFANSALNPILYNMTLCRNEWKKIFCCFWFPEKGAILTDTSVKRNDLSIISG
Assay: Intracellular Ca2+ assay in human GPR120 stable cell line (FLIPR Calcium 4 dye, Flexstation)
Format: cell-based
Settings: eight concentrations from 0.00001 to 20 µM; changes (Max-Min) of fluorescence intensity
Protocol: Human GPR120 stable cell line was purchased from Multispan Inc (26219 Eden Landing Road, Hayward, CA94545). This GPR120 cell line was generated in HEK293 cells co-expressing Gqi5. In this cell line, the Flag epitope tag (DYKDDDDK) was fused to the amino terminus of human GPR120 protein.
The concentration of intracellular Ca^2+ was measured as described below. Human GPR120 cells were plated in 96 well plates (Poly-D-Lysine coated black/clear Plate, Greiner Bio-One) at 70,000 cells per well and cultured overnight in conditions of 37°C and 5% CO2. A Ca^2+ assay dye stock solution was prepared by adding 10 mL of assay buffer (HBSS/20mM HEPES, pH 7.4) to FLIPR Calcium 4 Assay Bulk Kit (Molecular Devices). The 10 mL of Ca^2+ assay dye solution was prepared by further diluting 0.5 mL of Ca^2+ assay dye stock solution with 10 mL of assay buffer. The medium of the cells was removed and immediately 100 µL of the Ca^2+ assay dye solution was dispensed into each well followed by incubation at 37°C and 5% CO2 for 50 minutes to incorporate the Ca^2+ dye into the cells. The cell plate was then placed in the Flexstation (Molecular Devices) for 20 minutes at 37°C. Compounds were dissolved in 100% DMSO and diluted to desired concentrations with assay buffer and placed in the Flexstation simultaneously with the cell plate for 20 minute incubation at 37°C prior to reading. Fluorescence intensity was measured immediately following compound addition (25 µL/well) on the Flexstation at an excitation wavelength of 485 nm and an emission wavelength of 525 with 515 nm auto cutoff. The resulting increase in fluorescence intensities corresponds to increases in intracellular Ca^2+ levels.
Compounds were dissolved in 100% DMSO to a concentration of 20 mM to provide stock solutions. To determine activity against human GPR120, compounds were added with human GPR120 stably expressing cells (described above), at eight desired concentrations ranging from 0.00001 to 20 µM, in 96 well plates and fluorescence intensities were measured for 90 seconds with 2-second intervals. An EC50 value (concentration of the GPR120 agonist where 50% of the agonist's maximal activity is observed) was calculated using the changes (Max-Min) of fluorescence intensity.
To determine percent activity for a tested compound, the fluorescence intensity value obtained at a particular concentration were compared to the maximal fluorescence intensity value obtained for reference compound GW9508 (4-[[(3-phenoxyphenyl)methyl]amino]benzene propanoic acid; British Journal of Pharmacology 2006 148, 619-628) or the compound of Example 25. When GW9508 was used as the reference compound, the maximal activity of GW9508 at 6.7µM was designated as 100% activity. When the compound of Example 25 was used as the reference compound, the maximal activity of the compound of Example 25 at 2.5 µM was designated as 100% activity. Typically, the GW9508 activity reached a maximum at a concentration of approximately 6.7 µM and typically the compound of Example 25 reached a maximum activity at approximately 2.5µM. […]

| EC50 | Compound |
| --- | --- |
| ≤ 1000 nM | CC1(C)Cc2cccc(COc3c(F)cc(CCC(=O)O)cc3F)c2O1 [Example 25, 3-(4-((2,2-dimethyl-2,3-dihydrobenzofuran-7-yl)methoxy)-3,5-difluorophenyl)propanoic acid] |
| ≤ 1000 nM | CC(Cc1ccc(OCc2cc(F)cc3c2OC2(CCCC2)C3)cc1)C(=O)O (stereo not drawn) [Example 162, 3-(4-((5-fluoro-3H-spiro[benzofuran-2,1'-cyclopentane]-7-yl)methoxy)phenyl)-2-methylpropanoic acid] |
| ≤ 1000 nM | CC(C)CCc1c(CCC(=O)O)ccc(OCc2cc(Cl)cc3c2OC(C)(C)C3)c1F [Example 233, 3-(4-((5-chloro-2,2-dimethyl-2,3-dihydrobenzofuran-7-yl)methoxy)-3-fluoro-2-isopentylphenyl)propanoic acid] |
| ≤ 1000 nM | CC1(C)Cc2cccc(COc3c(F)cc(C4CC4C(=O)O)cc3F)c2O1 (stereo not drawn) [Example 24, 2-(4-((2,2-dimethyl-2,3-dihydrobenzofuran-7-yl)methoxy)-3,5-difluorophenyl) cyclopropanecarboxylic acid] |
| ≤ 1000 nM | CC(Cc1ccc(OCc2cccc3c2CC(C)(C)O3)cc1)C(=O)O (stereo not drawn) [Example 17, 3-(4-((2,2-dimethyl-2,3-dihydrobenzofuran-4-yl)methoxy)phenyl)-2-methylpropanoic acid] |
| ≤ 1000 nM | Cc1cc(COc2c(F)cc(CCCC(=O)O)cc2F)c2c(c1)CC(C)(C)O2 [Example 169, 4-(3,5-difluoro-4-((2,2,5-trimethyl-2,3-dihydrobenzofuran-7-yl)methoxy)phenyl)butanoic acid] |
| ≤ 1000 nM | CC(Cc1ccc(OCc2c(F)ccc3c2CC(C)(C)O3)cc1)C(=O)O (stereo not drawn) [Example 96, 3-(4-((5-fluoro-2,2-dimethyl-2,3-dihydrobenzofuran-4-yl)methoxy)phenyl)-2-methylpropanoic acid] |
| ≤ 1000 nM | CC1(C)Cc2c(COc3c(F)cc(C4CC4C(=O)O)cc3F)ccc(F)c2O1 (stereo not drawn) [Example 93, 2-(3,5-difluoro-4-((7-fluoro-2,2-dimethyl-2,3-dihydrobenzofuran-4-yl)methoxy)phenyl) cyclopropanecarboxylic acid] |
| ≤ 1000 nM | CC1(C)Cc2c(COc3ccc4c(c3)CCC4CC(=O)O)ccc(F)c2O1 (stereo not drawn) [Example 94, 2-(5-((7-fluoro-2,2-dimethyl-2,3-dihydrobenzofuran-4-yl)methoxy)-2,3-dihydro-1H-inden-1-yl)acetic acid] |
| ≤ 1000 nM | CC1(C)Cc2cc(F)cc(COc3ccc4c(c3)CC[C@H]4CC(=O)O)c2O1 [Example 175, (S)-2-(5-((5-fluoro-2,2-dimethyl-2,3-dihydrobenzofuran-7-yl)methoxy)-2,3-dihydro-1H-inden-1-yl)acetic acid] |
| ≤ 1000 nM | CC(Cc1ccc(OCc2cc(-c3ccccc3Cl)cc3c2OC(C)(C)C3)cc1)C(=O)O (stereo not drawn) [Example 85, 3-(4-((5-(2-chlorophenyl)-2,2-dimethyl-2,3-dihydrobenzofuran-7-yl)methoxy)phenyl)-2-methylpropanoic acid] |
| ≤ 1000 nM | [2H]C([2H])(Oc1ccc(CCC(=O)O)c(CCC)c1F)c1cc(F)cc2c1OC(C)(C)C2 [Example 229, 3-(4-(dideuterio(5-fluoro-2,2-dimethyl-2,3-dihydrobenzofuran-7-yl)methoxy)-3-fluoro-2-propylphenyl)propanoic acid] |
| ≤ 1000 nM | CC1(C)Cc2cc(F)cc(COc3ccc(CCCC(=O)O)cc3)c2O1 [Example 160, 4-(4-((5-fluoro-2,2-dimethyl-2,3-dihydrobenzofuran-7-yl)methoxy)phenyl)butanoic acid] |
| ≤ 1000 nM | [2H]C([2H])(Oc1ccc(CC(C)C(=O)O)cc1F)c1cc(Cl)cc2c1OC(C)(C)C2 (stereo not drawn) [Example 236, 3-(4-(dideuterio(5-chloro-2,2-dimethyl-2,3-dihydrobenzofuran-7-yl)methoxy)-3-fluorophenyl)-2-methylpropanoic acid] |
| ≤ 1000 nM | CC(Cc1ccc(OCc2cc(F)cc3c2OC(C)(C)C3=O)c(F)c1)C(=O)O (stereo not drawn) [Example 78, 3-(3-fluoro-4-((5-fluoro-2,2-dimethyl-3-oxo-2,3-dihydrobenzofuran-7-yl)methoxy)phenyl)-2-methylpropanoic acid] |
| ≤ 1000 nM | CC(Cc1ccc(OCc2cc(Cl)cc3c2OC(C)(C)C3=O)c(C(F)(F)F)c1)C(=O)O (stereo not drawn) [Example 79, 3-(4-((5-chloro-2,2-dimethyl-3-oxo-2,3-dihydrobenzofuran-7-yl)methoxy)-3-(trifluoromethyl)phenyl)-2-methylpropanoic acid] |
| ≤ 1000 nM | Cc1c(CCC(=O)O)ccc(OCc2cc(F)cc3c2OC2(CCCC2)C3)c1C [Example 256, 3-(4-((5-fluoro-3H-spiro[benzofuran-2,1'-cyclopentan]-7-yl)methoxy)-2,3-dimethylphenyl)propanoic acid] |
| ≤ 1000 nM | CC1(C)Cc2cc(Cl)cc(COc3ccc(C(C)(C)CC(=O)O)cc3)c2O1 [Example 156, 3-(4-((5-chloro-2,2-dimethyl-2,3-dihydrobenzofuran-7-yl)methoxy)phenyl)-3-methylbutanoic acid] |
| ≤ 1000 nM | CC(Cc1ccc(OCc2ccc(F)c3c2OC(C)(C)C3)c(F)c1)C(=O)O (stereo not drawn) [Example 29, 3-(3-fluoro-4-((4-fluoro-2,2-dimethyl-2,3-dihydrobenzofuran-7-yl)methoxy)phenyl)-2-methylpropanoic acid] |
| ≤ 1000 nM | CC(Cc1cc(F)c(OCc2ccc(F)c3c2CC(C)(C)O3)c(F)c1)C(=O)O (stereo not drawn) [Example 92, 3-(3,5-difluoro-4-((7-fluoro-2,2-dimethyl-2,3-dihydrobenzofuran-4-yl)methoxy)phenyl)-2-methylpropanoic acid] |
| ≤ 1000 nM | Cc1cc2cc(Cl)cc(COc3ccc(CC(C)C(=O)O)cc3F)c2o1 (stereo not drawn) [Example 120, 3-(4-((5-chloro-2-methylbenzofuran-7-yl)methoxy)-3-fluorophenyl)-2-methylpropanoic acid] |
| ≤ 1000 nM | CCCc1c(CCC(=O)O)ccc(OCc2cc(F)cc3c2OC(C)(C)C3)c1F [Example 222, 3-(3-fluoro-4-((5-fluoro-2,2-dimethyl-2,3-dihydrobenzofuran-7-yl)methoxy)-2-propylphenyl)propanoic acid] |
| ≤ 1000 nM | CC1(C)Cc2cc(F)cc(COc3ccc4c(CC(=O)O)coc4c3)c2O1 [Example 262, 2-(6-((5-fluoro-2,2-dimethyl-2,3-dihydrobenzofuran-7-yl)methoxy)benzofuran-3-yl)acetic acid] |
| ≤ 1000 nM | CC1(C)Cc2cc(F)cc(COc3ccc(C4CC4CC(=O)O)c(F)c3)c2O1 (stereo not drawn) [Example 210, 2-(2-(2-fluoro-4-((5-fluoro-2,2-dimethyl-2,3-dihydrobenzofuran-7-yl)methoxy)phenyl)cyclopropyl)acetic acid] |
| ≤ 1000 nM | CC(Cc1ccc(OCc2cc(-c3cccc(Cl)c3)cc3c2OC(C)(C)C3)cc1)C(=O)O (stereo not drawn) [Example 84, 3-(4-((5-(3-chlorophenyl)-2,2-dimethyl-2,3-dihydrobenzofuran-7-yl)methoxy)phenyl)-2-methylpropanoic acid] |
| ≤ 1000 nM | Cc1c(CCC(=O)O)ccc(OCc2cc(Cl)cc3c2OC(C)(C)C3)c1C [Example 209, 3-(4-((5-chloro-2,2-dimethyl-2,3-dihydrobenzofuran-7-yl)methoxy)-2,3-dimethylphenyl)propanoic acid] |
| ≤ 1000 nM | CCc1c(CC(C)C(=O)O)ccc(OCc2cc(F)cc3c2OC(C)(C)C3)c1F (stereo not drawn) [Example 226, 3-(2-ethyl-3-fluoro-4-((5-fluoro-2,2-dimethyl-2,3-dihydrobenzofuran-7-yl)methoxy)phenyl)-2-methylpropanoic acid] |
